Test results: publication PMC6753678, “Fueling Open Innovation for Malaria Transmission-Blocking Drugs: Hundreds of Molecules Targeting Early Parasite Mosquito Stages” (Frontiers in Microbiology, 2019)

Columns and labels:
Conditions in all cases: unified cytotox / IC50; <10-fold red, >10-fold green
[1] = tested on: P. falciparum female gametocytes; test: P. falciparum female gametogenesis assay (Pf FGAA)
[2] = tested on: P. berghei ookinete development
[3] = tested on: P. falciparum late stage (stages IV-V) gametocytes; test: P. falciparum late stage gametocyte ATP depletion assay (Pf GC-ATP)

**Q.** For `Cl.c1ccc2c(NCCCCCCCCCNc3c4ccccc4nc4ccccc34)c3ccccc3nc2c1` [TCMDC-124286], which “Assay tox ratio Pf FGAA” value [1] is on record?
**A.** 3.06

**Q.** What about the “Assay tox ratio Pb ODA” value [2] of the same compound?
**A.** 2.71

**Q.** And the “Assay tox ratio Pf GC-ATP” value [3]?
**A.** 3.68
